# No constants are given. Whether binding was seen depends on the method and setting. Binding seen in cells or lysates may run through a third protein. Some results given as binding are weak or reduced against the parent protein; the word gives no strength. Tags and fused reporters may be left off the sequences shown.
# By UniProt entry, the sequences of proteins in these tests, tags left out. Residues count along the entry.
# UniProt P11021, residues 19-654: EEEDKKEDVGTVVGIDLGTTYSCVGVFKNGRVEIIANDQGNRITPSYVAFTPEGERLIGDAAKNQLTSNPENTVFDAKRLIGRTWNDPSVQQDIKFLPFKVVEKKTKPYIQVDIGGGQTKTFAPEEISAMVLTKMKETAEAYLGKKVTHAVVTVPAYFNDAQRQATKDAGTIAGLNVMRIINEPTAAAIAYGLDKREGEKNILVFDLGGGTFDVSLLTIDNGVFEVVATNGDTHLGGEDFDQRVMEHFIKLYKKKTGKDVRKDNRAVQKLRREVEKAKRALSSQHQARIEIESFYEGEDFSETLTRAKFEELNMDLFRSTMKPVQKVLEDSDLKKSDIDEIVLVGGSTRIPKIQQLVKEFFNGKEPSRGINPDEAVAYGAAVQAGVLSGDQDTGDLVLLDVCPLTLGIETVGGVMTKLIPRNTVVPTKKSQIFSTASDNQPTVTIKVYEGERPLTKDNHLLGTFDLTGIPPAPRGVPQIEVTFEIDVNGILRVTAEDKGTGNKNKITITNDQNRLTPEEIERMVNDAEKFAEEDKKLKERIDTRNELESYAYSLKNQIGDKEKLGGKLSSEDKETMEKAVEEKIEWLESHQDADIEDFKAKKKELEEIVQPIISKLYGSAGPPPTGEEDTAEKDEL
# What was measured:
# [1] = biological target: T1, HA-DLC1 (deleted in liver cancer-1) (human) (UniProt Q96QB1); experiment: co-IP; HEK-293T; Flag-tagged full-length GRP78 or truncations with HA-DLC1
# T1 sequence: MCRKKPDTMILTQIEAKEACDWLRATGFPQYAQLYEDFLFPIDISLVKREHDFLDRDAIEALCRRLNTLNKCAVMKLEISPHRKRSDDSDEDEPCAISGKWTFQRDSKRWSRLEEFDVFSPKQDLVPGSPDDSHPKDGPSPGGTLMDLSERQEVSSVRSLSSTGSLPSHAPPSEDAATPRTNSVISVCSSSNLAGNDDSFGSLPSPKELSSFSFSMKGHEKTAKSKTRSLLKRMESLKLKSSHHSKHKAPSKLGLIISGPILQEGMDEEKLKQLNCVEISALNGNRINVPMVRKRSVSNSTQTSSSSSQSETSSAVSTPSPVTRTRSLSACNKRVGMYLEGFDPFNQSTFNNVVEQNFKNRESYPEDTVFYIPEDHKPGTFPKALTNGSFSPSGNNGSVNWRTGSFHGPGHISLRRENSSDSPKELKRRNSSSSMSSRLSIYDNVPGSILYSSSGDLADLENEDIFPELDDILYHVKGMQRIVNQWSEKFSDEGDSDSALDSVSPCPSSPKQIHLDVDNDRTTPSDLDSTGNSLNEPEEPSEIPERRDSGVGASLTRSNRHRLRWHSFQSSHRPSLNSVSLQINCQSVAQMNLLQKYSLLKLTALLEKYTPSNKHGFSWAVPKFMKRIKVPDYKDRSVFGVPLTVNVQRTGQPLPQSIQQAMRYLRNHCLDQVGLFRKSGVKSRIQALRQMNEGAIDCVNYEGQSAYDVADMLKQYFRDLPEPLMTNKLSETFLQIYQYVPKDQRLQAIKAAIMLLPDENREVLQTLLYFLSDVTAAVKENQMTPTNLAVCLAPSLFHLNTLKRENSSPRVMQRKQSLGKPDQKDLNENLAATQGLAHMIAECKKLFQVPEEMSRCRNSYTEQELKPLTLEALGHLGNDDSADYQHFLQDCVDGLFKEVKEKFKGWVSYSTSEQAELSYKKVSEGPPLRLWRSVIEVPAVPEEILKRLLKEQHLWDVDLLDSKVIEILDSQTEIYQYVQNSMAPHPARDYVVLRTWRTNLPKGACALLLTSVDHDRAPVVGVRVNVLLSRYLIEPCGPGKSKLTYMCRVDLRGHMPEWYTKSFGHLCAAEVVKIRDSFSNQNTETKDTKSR
# [2] = biological target: T2, Flag-MANF (mesencephalic astrocyte-derived neurotrophic factor), expressed in HEK-293T (human) (UniProt P55145); experiment: co-IP; HEK-293T transfected with GRP78-HA, Flag-MANF and an increasing amount of DLC1-Flag
# T2 sequence: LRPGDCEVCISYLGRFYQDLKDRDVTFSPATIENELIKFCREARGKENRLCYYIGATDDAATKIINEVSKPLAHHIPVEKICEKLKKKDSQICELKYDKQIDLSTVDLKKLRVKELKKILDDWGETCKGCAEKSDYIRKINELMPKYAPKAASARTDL
# [3] = biological target: T3, DLC1-Flag (deleted in liver cancer-1), expressed in HEK-293T (human) (UniProt Q96QB1); experiment: co-IP; HEK-293T transfected with GRP78-HA and DLC1-Flag or Flag-MANF; whole cell lysate, IP with antibody against Flag, immunoblot with antibody HA
# T3 sequence: T1 sequence
# [4] = biological target: T2, Flag-MANF (mesencephalic astrocyte-derived neurotrophic factor), expressed in HEK-293T (human); experiment: as above
# [5] = biological target: T4, DLC1-Flag (deleted in liver cancer-1), exogenous in SW1116 (human) (UniProt Q96QB1); experiment: co-IP; SW1116 cells with exogenous DLC1-Flag or Flag-MANF; endogenous GRP78 detected
# T4 sequence: T1 sequence
# [6] = biological target: T5, Flag-MANF (mesencephalic astrocyte-derived neurotrophic factor), exogenous in SW1116 (human) (UniProt P55145); experiment: as above
# T5 sequence: T2 sequence
substance,measurement,setting,value
"GRP78 full length, tagged with Flag (from UniProt P11021 19-654)",binding,[1],binds
GRP78-HA (glucose-regulated protein 78 kDa) (from UniProt P11021 19-654),binding,[2],binds
same,binding,[3],binds
same,binding,[4],binds
"glucose-regulated protein 78 kDa (GRP78), endogenous in SW1116 (from UniProt P11021 19-654)",binding,[5],binds
same,binding,[6],binds
